Results are given in words; binding and its absence hold for the method and conditions named. In cells and extracts the contact can be indirect. Binding calls can cover weak binding; strength is not graded here. Tags and fused reporters may be left off the sequences shown.
T1: TOX-Flag (full-length TOX) (UniProt O94900)
T1 sequence: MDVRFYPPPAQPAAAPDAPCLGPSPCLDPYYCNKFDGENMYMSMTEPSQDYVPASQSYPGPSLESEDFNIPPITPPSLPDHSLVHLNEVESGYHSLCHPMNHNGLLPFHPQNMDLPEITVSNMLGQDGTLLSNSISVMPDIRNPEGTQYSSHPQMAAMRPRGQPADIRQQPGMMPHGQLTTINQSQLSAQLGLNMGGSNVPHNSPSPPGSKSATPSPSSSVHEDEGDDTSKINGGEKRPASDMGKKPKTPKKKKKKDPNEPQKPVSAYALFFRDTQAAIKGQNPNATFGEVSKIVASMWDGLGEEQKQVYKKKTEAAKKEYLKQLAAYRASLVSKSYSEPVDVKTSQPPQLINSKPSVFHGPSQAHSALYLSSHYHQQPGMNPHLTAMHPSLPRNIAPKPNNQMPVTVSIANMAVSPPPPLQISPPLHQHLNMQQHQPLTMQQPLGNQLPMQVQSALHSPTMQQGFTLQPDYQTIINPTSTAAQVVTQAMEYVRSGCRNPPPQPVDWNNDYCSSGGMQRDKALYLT


target: T1, TOX-Flag (full-length TOX); assay: co-IP; exogenous co-IP in HEK293T cells co-transfected with full-length TOX, TOX-Flag or TOX2-HA and truncated TOX or TOX2 plasmids; Co-IP kit lysis buffer, antibody overnight at 4 °C, protein A/G beads

Molecule | binding
TOX2-HA (full-length TOX2) | binds
TOX2(C)-Flag (311–506) (domain or fragment) | no binding
TOX2(N)-Flag (1–246) (domain or fragment) | no binding

target: TOX2-HA (full-length TOX2); assay: as above

Molecule | binding
TOX-Flag (full-length TOX) (natural protein, UniProt O94900 1-526, looked up, TOX, full length (526 residues by the printed limits of TOX(C) 257-526), in pCDH vector; Both are written as this one molecule; source: HEK293T, transfected, in lysate; not shown: Flag, C-terminal, kept) MDVRFYPPPAQPAAAPDAPCLGPSPCLDPYYCNKFDGENMYMSMTEPSQDYVPASQSYPGPSLESEDFNIPPITPPSLPDHSLVHLNEVESGYHSLCHPMNHNGLLPFHPQNMDLPEITVSNMLGQDGTLLSNSISVMPDIRNPEGTQYSSHPQMAAMRPRGQPADIRQQPGMMPHGQLTTINQSQLSAQLGLNMGGSNVPHNSPSPPGSKSATPSPSSSVHEDEGDDTSKINGGEKRPASDMGKKPKTPKKKKKKDPNEPQKPVSAYALFFRDTQAAIKGQNPNATFGEVSKIVASMWDGLGEEQKQVYKKKTEAAKKEYLKQLAAYRASLVSKSYSEPVDVKTSQPPQLINSKPSVFHGPSQAHSALYLSSHYHQQPGMNPHLTAMHPSLPRNIAPKPNNQMPVTVSIANMAVSPPPPLQISPPLHQHLNMQQHQPLTMQQPLGNQLPMQVQSALHSPTMQQGFTLQPDYQTIINPTSTAAQVVTQAMEYVRSGCRNPPPQPVDWNNDYCSSGGMQRDKALYLT | binds
TOX(C)-His (257–526) (domain or fragment, UniProt O94900 257-526) DPNEPQKPVSAYALFFRDTQAAIKGQNPNATFGEVSKIVASMWDGLGEEQKQVYKKKTEAAKKEYLKQLAAYRASLVSKSYSEPVDVKTSQPPQLINSKPSVFHGPSQAHSALYLSSHYHQQPGMNPHLTAMHPSLPRNIAPKPNNQMPVTVSIANMAVSPPPPLQISPPLHQHLNMQQHQPLTMQQPLGNQLPMQVQSALHSPTMQQGFTLQPDYQTIINPTSTAAQVVTQAMEYVRSGCRNPPPQPVDWNNDYCSSGGMQRDKALYLT | binds
TOX(C2)-Myc (361–526) (domain or fragment, UniProt O94900 361-526) GPSQAHSALYLSSHYHQQPGMNPHLTAMHPSLPRNIAPKPNNQMPVTVSIANMAVSPPPPLQISPPLHQHLNMQQHQPLTMQQPLGNQLPMQVQSALHSPTMQQGFTLQPDYQTIINPTSTAAQVVTQAMEYVRSGCRNPPPQPVDWNNDYCSSGGMQRDKALYLT | no binding
TOX(N)-His (1–360) (domain or fragment, UniProt O94900 1-360) MDVRFYPPPAQPAAAPDAPCLGPSPCLDPYYCNKFDGENMYMSMTEPSQDYVPASQSYPGPSLESEDFNIPPITPPSLPDHSLVHLNEVESGYHSLCHPMNHNGLLPFHPQNMDLPEITVSNMLGQDGTLLSNSISVMPDIRNPEGTQYSSHPQMAAMRPRGQPADIRQQPGMMPHGQLTTINQSQLSAQLGLNMGGSNVPHNSPSPPGSKSATPSPSSSVHEDEGDDTSKINGGEKRPASDMGKKPKTPKKKKKKDPNEPQKPVSAYALFFRDTQAAIKGQNPNATFGEVSKIVASMWDGLGEEQKQVYKKKTEAAKKEYLKQLAAYRASLVSKSYSEPVDVKTSQPPQLINSKPSVFH | binds
